Values from PubChem BioAssay AID1259254 (NCATS, 2017)

Test: 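Finding genes that stop cells copying their DNA twice in one cycle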 (primary screen)
Cell system: human HCT116 colorectal cancer cells
Knock-down reagent: single siRNA against human genes
Timing: 3 days
Measured: 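Nuclei stained with Hoechst and imaged; cell-cycle phase assigned by DNA content; G2 share scaled per plate, non-targeting siRNA 0%, GMNN siRNA 100%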
Reading the numbers: G2 robust z-score: higher = more G2 cells, more excess DNA replication
Call rule: 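Active siRNAs have a G2 robust z of 5 or more median absolute deviations over the median, which in these data means about 38% or higher of GMNN control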
Shown is a random part of about 59,000 reagents tested. About 1,550 of all reagents (2.6%) were called active. 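G2 share is only a proxy for re-replication; each gene was hit by three separate siRNAs, and active genes were retested.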 Further read-outs or replicates are left out here. Not stated in the record: the amount of reagent.

CASC15 [SID160772486] | G2 robust z-score: 0.337; outcome: inactive
CASC15 [SID160772487] | G2 robust z-score: 1.06; outcome: inactive
CASC15 [SID160772488] | G2 robust z-score: 1.24; outcome: inactive
KIAA0319L [SID160749801] | G2 robust z-score: 0.047; outcome: inactive
KIAA0319L [SID160749802] | G2 robust z-score: 0.475; outcome: inactive
KIAA0319L [SID160749803] | G2 robust z-score: 2.11; outcome: inactive
PIGQ [SID160721444] | G2 robust z-score: -0.437; outcome: inactive
PIGQ [SID160721445] | G2 robust z-score: -0.594; outcome: inactive
PIGQ [SID160721446] | G2 robust z-score: -0.263; outcome: inactive

Part of the list above, set out differently.
gene knocked down | PubChem SID | G2 robust z-score | outcome
KIAA0319L | SID160749801 | 0.047 | inactive
KIAA0319L | SID160749802 | 0.475 | inactive

Further records follow:
FGA [SID160764865] | G2 robust z-score: 1.38; outcome: inactive
FGA [SID160764875] | G2 robust z-score: -0.619; outcome: inactive
FGA [SID160764885] | G2 robust z-score: -0.652; outcome: inactive
BEST4 [SID160762674] | G2 robust z-score: 1.44; outcome: inactive
BEST4 [SID160762675] | G2 robust z-score: 0.276; outcome: inactive
BEST4 [SID160762676] | G2 robust z-score: 0.925; outcome: inactive
NPY1R [SID160778218] | G2 robust z-score: -0.0999; outcome: inactive
NPY1R [SID160778220] | G2 robust z-score: -0.157; outcome: inactive
NPY1R [SID160778221] | G2 robust z-score: -0.168; outcome: inactive
IST1 [SID160723117] | G2 robust z-score: 0.276; outcome: inactive
IST1 [SID160723119] | G2 robust z-score: -0.132; outcome: inactive
IST1 [SID160723120] | G2 robust z-score: 2.29; outcome: inactive
UCHL1 [SID160718566] | G2 robust z-score: -0.452; outcome: inactive
UCHL1 [SID160718567] | G2 robust z-score: -1.61; outcome: inactive
UCHL1 [SID160731871] | G2 robust z-score: -0.668; outcome: inactive
